This is one part of the list. The data scatter; read single values as rough.
Key:
Settings in all cases: 10 µM
[1] = tested on: Plasmodium vivax liver stage (primary human hepatocyte culture); assay: hypnozoite quantity inhibition (% inhibition); higher = more active against hypnozoites
[2] = tested on: Plasmodium vivax liver stage (primary human hepatocyte culture); assay: schizont net growth area inhibition (% inhibition); higher = more active against liver schizonts
[3] = tested on: primary human hepatocytes; assay: hepatic nuclei reduction relative to DMSO (100 - % of negative control); higher = more toxic to hepatocytes
[4] = assay mode: Prophylactic (treated before or shortly after infection), fixed day 6 post-infection
[5] = assay mode: Radical Cure (treated from day 5 post-infection for 3 days), fixed day 8 post-infection

Compound	hypnozoite quantity inhibition [1, 4]	hypnozoite quantity inhibition [1, 5]	schizont net growth area inhibition [2, 4]	schizont net growth area inhibition [2, 5]	hepatic nuclei reduction [3, 4] [%]	hepatic nuclei reduction [3, 5] [%]
Cc1ccc(-c2nc3ccccc3o2)cc1NCc1cc(Cc2ccccc2)ccc1O	5.1	18.3	-27.3	-24.9	-1	-6
CCOc1ccccc1NC(=O)CN1CCN(C(=O)c2ccco2)CC1	12.6	23.7	-1.7	11.6	7	-3
c1ccc(Oc2ccc(-c3cncc(-c4ccc5[nH]ccc5c4)n3)cc2)cc1	-21	-18	-17.1	-140	-12	0
C=C[C@H]1C[N@@]2CC[C@H]1C[C@H]2[C@H](O)c1ccnc2ccc(OC)cc12	0	12	29.2	48.5	-10	-6
CC(=O)NC[C@H]1CN(c2ccc(N3CCSCC3)c(F)c2)C(=O)O1	27	3	4.2	-178	-9	-9
Cc1cc(O)nc(-n2nc(C)cc2C)n1	-76	9	-21.5	14.8	-8	-1
Cc1nn(C)cc1C(C)Nc1nncc(-c2ccc(C(F)(F)F)cc2)n1 (stereo not given)	-61	47	48.8	73.6	-6	-4
CCCCCCOC(=O)C1=C(C)NC(=O)NC1c1ccccc1F (stereo not given)	13.9	10.1	23.1	-23.9	1	-11
FC(F)(F)c1ccc(Nc2nnnc3ccccc23)cc1	-39.2	15.3	87.5	-16.4	5	11
Nc1ccc2ncnc(Nc3ccc(OCc4cccc(F)c4)c(Cl)c3)c2c1	-70	-75	-35.7	-12.3	-12	-16
OCCNc1nc(Nc2ccc(Cl)c(Cl)c2)nc2ccccc12	-12.6	48.2	7.2	38.7	-2	-3
O=C(c1ccc(NCCO)cc1)C1C[C@H]1c1ccc(Cl)cc1 (stereo not given in full)	-15	-22	-11.4	27.9	-3	-4
CC(C)N=C(N)N=C(N)Nc1ccc(Cl)c(Cl)c1	14	47	57.8	72.8	6	-6
COc1cccc(C(=O)NC(c2ccc(C)cc2)c2cc(Cl)c3cccnc3c2O)c1 (stereo not given)	-48.1	-5.3	103	-73.6	-8	-12
COc1ccc(C2=NCCN2)cc1-c1cn(-c2cccc(C3=NCCN3)c2)nn1	15	3	29.8	7.5	-3	-12
CC(=O)N[C@@H](C(=O)O)C(C)(C)S	-55	31	-43.5	64	-14	0
Cc1sc(NC(=O)c2ccco2)c(C(c2cccnc2)N2CCC(Cc3ccccc3)CC2)c1C (stereo not given)	12.6	7.4	66	-166	-2	-14
OC(CNCc1ccccc1)Cn1c2ccccc2c2ccccc21 (stereo not given)	7.6	56.4	21	62	3	0
COc1ccccc1N=C1C(=O)c2ccccc2C(O)=C1N1CCCCC1	1.7	33.6	58.9	35	0	2
O=C(NCCc1ccccc1)c1cc(-c2cccnc2)cnc1NCC1CC1	31	-36	42.5	46.5	-1	-6
O=C(NC1CCN(c2ccnc3ccccc23)C1)c1cccc(C(F)(F)F)c1 (stereo not given)	-2	31	58	11.2	-7	-1
CCOC(=O)c1c(C)n(-c2ccc(Cl)cc2)c2ccc(OC(=O)C=Cc3ccccc3)cc12	3.9	38.2	30.9	-16	-8	1
COc1ccc(C2=NN(C3CCCCCC3)C(=O)[C@@H]3CC=CC[C@H]23)cc1OCCCCOc1ccc(-c2nn[nH]n2)cc1	32	-18	-7.3	-106	-1	-1
COc1ccc(-c2cc3c(SCC(=O)Nc4cc(C(F)(F)F)ccc4Cl)nccn3n2)cc1	30.3	21	-12	18.6	12	-1
CC1CN(C(=O)c2sc3ccccc3c2Cl)CC(C)O1 (stereo not given)	-18.4	33.6	-37	50.6	-4	-3
CCC(C)NCC(O)(c1ccc(Cl)cc1)c1ccc(Cl)cc1 (stereo not given)	-0.6	40.1	-9.3	-8	2	-7
Cc1ccc(C(=O)c2oc3ccc4c(C)cc(=O)oc4c3c2C)cc1	-48.1	35.9	-132	-37.5	0	2
CC1CCCN(C(=O)C(C)Nc2cc(Cl)ccc2N2CCOCC2)C1 (stereo not given)	32	53	-17.5	37.1	-3	-2
O=c1cc(NC2CCN(CCCc3ccccc3)CC2)c2cc(Cl)ccc2o1	-22.1	67.3	20.4	-83.4	0	-6
Nc1nccc2ccc(Oc3ccncc3)cc12	-81	9	29.1	80.2	-8	2

Part of the list above, reformatted:

| Compound | hypnozoite quantity inhibition [1, 4] | hypnozoite quantity inhibition [1, 5] | schizont net growth area inhibition [2, 4] | schizont net growth area inhibition [2, 5] | hepatic nuclei reduction [3, 4] [%] | hepatic nuclei reduction [3, 5] [%] |
| --- | --- | --- | --- | --- | --- | --- |
| c1ccc(Oc2ccc(-c3cncc(-c4ccc5[nH]ccc5c4)n3)cc2)cc1 | -21 | -18 | -17.1 | -140 | -12 | 0 |
| CC(C)N=C(N)N=C(N)Nc1ccc(Cl)c(Cl)c1 | 14 | 47 | 57.8 | 72.8 | 6 | -6 |

Reference: the supplement of paper PMC8497498
